These are yes or no findings as the source states them, for the method shown. In cells and extracts the contact can be indirect. Some results given as binding are weak or reduced against the parent protein; the word gives no strength. Tags and fused reporters may be left off the sequences shown.
T1: HA-tagged CDH26 (human) (UniProt Q8IXH8)
T1 sequence: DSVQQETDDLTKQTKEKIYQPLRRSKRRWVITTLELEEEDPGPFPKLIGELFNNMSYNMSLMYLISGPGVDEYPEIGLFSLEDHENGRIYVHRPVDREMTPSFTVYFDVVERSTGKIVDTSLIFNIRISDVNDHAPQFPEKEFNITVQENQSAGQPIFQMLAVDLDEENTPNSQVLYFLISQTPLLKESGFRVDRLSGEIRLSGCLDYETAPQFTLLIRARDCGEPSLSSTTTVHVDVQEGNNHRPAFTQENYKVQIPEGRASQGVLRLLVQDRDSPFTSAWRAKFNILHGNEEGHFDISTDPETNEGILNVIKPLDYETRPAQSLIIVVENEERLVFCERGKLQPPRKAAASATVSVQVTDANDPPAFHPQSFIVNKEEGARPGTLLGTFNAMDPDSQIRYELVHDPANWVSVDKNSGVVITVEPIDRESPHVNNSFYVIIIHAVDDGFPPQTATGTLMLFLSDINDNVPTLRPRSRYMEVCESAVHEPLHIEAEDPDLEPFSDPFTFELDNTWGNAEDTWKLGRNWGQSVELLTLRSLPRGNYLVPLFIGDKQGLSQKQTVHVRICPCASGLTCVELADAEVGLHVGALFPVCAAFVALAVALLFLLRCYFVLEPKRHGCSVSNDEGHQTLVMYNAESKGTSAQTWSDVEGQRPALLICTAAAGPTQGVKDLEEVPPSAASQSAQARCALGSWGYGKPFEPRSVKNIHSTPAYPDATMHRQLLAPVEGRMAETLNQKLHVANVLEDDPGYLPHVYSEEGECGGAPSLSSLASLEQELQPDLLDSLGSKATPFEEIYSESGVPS

Amino acid sequences for entries named in this document (tags omitted). Residues count along the entry.
UniProt P13612, residues 34-1032: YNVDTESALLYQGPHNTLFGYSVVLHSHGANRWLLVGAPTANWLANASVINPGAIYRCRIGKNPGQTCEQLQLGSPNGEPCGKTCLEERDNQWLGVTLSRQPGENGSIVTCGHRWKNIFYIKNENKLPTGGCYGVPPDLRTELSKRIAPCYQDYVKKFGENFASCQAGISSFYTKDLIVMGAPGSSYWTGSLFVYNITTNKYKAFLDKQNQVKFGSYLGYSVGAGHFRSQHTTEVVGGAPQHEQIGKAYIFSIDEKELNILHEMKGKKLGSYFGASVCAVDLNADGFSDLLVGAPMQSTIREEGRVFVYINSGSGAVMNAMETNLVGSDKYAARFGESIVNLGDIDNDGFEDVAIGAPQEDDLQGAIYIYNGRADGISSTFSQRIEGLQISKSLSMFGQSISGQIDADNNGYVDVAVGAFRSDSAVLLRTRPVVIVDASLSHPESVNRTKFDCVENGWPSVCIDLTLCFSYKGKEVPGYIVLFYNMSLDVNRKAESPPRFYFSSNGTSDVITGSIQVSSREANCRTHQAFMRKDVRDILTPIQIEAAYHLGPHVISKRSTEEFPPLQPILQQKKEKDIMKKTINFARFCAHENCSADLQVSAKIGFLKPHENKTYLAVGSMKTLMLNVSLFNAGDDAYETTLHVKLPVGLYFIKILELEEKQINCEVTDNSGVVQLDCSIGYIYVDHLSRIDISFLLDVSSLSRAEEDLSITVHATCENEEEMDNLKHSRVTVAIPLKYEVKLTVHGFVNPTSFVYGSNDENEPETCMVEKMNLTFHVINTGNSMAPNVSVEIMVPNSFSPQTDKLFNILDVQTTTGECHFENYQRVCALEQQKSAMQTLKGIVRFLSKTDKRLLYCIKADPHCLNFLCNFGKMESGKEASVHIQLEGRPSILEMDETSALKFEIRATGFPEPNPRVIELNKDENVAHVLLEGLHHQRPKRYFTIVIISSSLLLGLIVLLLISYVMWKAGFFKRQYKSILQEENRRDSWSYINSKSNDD


Tests used:
HA-tagged CDH26 (human) [1] = target: T1, HA-tagged CDH26 (human); assay: summary of the co-immunoprecipitations
HA-tagged CDH26 (human) [2] = target: T1, HA-tagged CDH26 (human); assay: co-immunoprecipitation from HEK 293T cells overexpressing both proteins
HA-tagged CDH26 (human) [3] = target: T1, HA-tagged CDH26 (human); assay: co-immunoprecipitation from co-transfected HEK 293T cells, western blot

Row | binding (HA-tagged CDH26 (human) [1]) | binding (HA-tagged CDH26 (human) [2]) | binding (HA-tagged CDH26 (human) [3]) | Molecule
1 | binds | binds |  | integrin α4 overexpressed in HEK 293T cells (from UniProt P13612 34-1032) (receptor)
2 |  |  | binds | Myc-tagged CDH26 (receptor, not shown: small tags and cut ends) DSVQQETDDLTKQTKEKIYQPLRRSKRRWVITTLELEEEDPGPFPKLIGELFNNMSYNMSLMYLISGPGVDEYPEIGLFSLEDHENGRIYVHRPVDREMTPSFTVYFDVVERSTGKIVDTSLIFNIRISDVNDHAPQFPEKEFNITVQENQSAGQPIFQMLAVDLDEENTPNSQVLYFLISQTPLLKESGFRVDRLSGEIRLSGCLDYETAPQFTLLIRARDCGEPSLSSTTTVHVDVQEGNNHRPAFTQENYKVQIPEGRASQGVLRLLVQDRDSPFTSAWRAKFNILHGNEEGHFDISTDPETNEGILNVIKPLDYETRPAQSLIIVVENEERLVFCERGKLQPPRKAAASATVSVQVTDANDPPAFHPQSFIVNKEEGARPGTLLGTFNAMDPDSQIRYELVHDPANWVSVDKNSGVVITVEPIDRESPHVNNSFYVIIIHAVDDGFPPQTATGTLMLFLSDINDNVPTLRPRSRYMEVCESAVHEPLHIEAEDPDLEPFSDPFTFELDNTWGNAEDTWKLGRNWGQSVELLTLRSLPRGNYLVPLFIGDKQGLSQKQTVHVRICPCASGLTCVELADAEVGLHVGALFPVCAAFVALAVALLFLLRCYFVLEPKRHGCSVSNDEGHQTLVMYNAESKGTSAQTWSDVEGQRPALLICTAAAGPTQGVKDLEEVPPSAASQSAQARCALGSWGYGKPFEPRSVKNIHSTPAYPDATMHRQLLAPVEGRMAETLNQKLHVANVLEDDPGYLPHVYSEEGECGGAPSLSSLASLEQELQPDLLDSLGSKATPFEEIYSESGVPS
3 | binds | binds |  | V5-tagged integrin αE (receptor, human, UniProt P38570 19-1179, looked up, not shown: small tags and cut ends) FNVDVARPWLTPKGGAPFVLSSLLHQDPSTNQTWLLVTSPRTKRTPGPLHRCSLVQDEILCHPVEHVPIPKGRHRGVTVVRSHHGVLICIQVLVRRPHSLSSELTGTCSLLGPDLRPQAQANFFDLENLLDPDARVDTGDCYSNKEGGGEDDVNTARQRRALEKEEEEDKEEEEDEEEEEAGTEIAIILDGSGSIDPPDFQRAKDFISNMMRNFYEKCFECNFALVQYGGVIQTEFDLRDSQDVMASLARVQNITQVGSVTKTASAMQHVLDSIFTSSHGSRRKASKVMVVLTDGGIFEDPLNLTTVINSPKMQGVERFAIGVGEEFKSARTARELNLIASDPDETHAFKVTNYMALDGLLSKLRYNIISMEGTVGDALHYQLAQIGFSAQILDERQVLLGAVGAFDWSGGALLYDTRSRRGRFLNQTAAAAADAEAAQYSYLGYAVAVLHKTCSLSYIAGAPRYKHHGAVFELQKEGREASFLPVLEGEQMGSYFGSELCPVDIDMDGSTDFLLVAAPFYHVHGEEGRVYVYRLSEQDGSFSLARILSGHPGFTNARFGFAMAAMGDLSQDKLTDVAIGAPLEGFGADDGASFGSVYIYNGHWDGLSASPSQRIRASTVAPGLQYFGMSMAGGFDISGDGLADITVGTLGQAVVFRSRPVVRLKVSMAFTPSALPIGFNGVVNVRLCFEISSVTTASESGLREALLNFTLDVDVGKQRRRLQCSDVRSCLGCLREWSSGSQLCEDLLLMPTEGELCEEDCFSNASVKVSYQLQTPEGQTDHPQPILDRYTEPFAIFQLPYEKACKNKLFCVAELQLATTVSQQELVVGLTKELTLNINLTNSGEDSYMTSMALNYPRNLQLKRMQKPPSPNIQCDDPQPVASVLIMNCRIGHPVLKRSSAHVSVVWQLEENAFPNRTADITVTVTNSNERRSLANETHTLQFRHGFVAVLSKPSIMYVNTGQGLSHHKEFLFHVHGENLFGAEYQLQICVPTKLRGLQVVAVKKLTRTQASTVCTWSQERACAYSSVQHVEEWHSVSCVIASDKENVTVAAEISWDHSEELLKDVTELQILGEISFNKSLYEGLNAENHRTKITVVFLKDEKYHSLPIIIKGSVGGLLVLIVILVILFKCGFFKRKYQQLNLESIRKAQLKSENLLEEEN
